Among the data in PubChem BioAssay AID1487 (National Center for Advancing Translational Sciences (NCATS), 2009) are AC50 values, retold here.

The other results are listed elsewhere or left out. The main result of the screen is listed elsewhere. These columns were measured beside it and carry no call. Compounds called inactive in the main read-out are mostly missing here. Potencies come from curve fits of mixed quality, noted in brackets.

The test is described as follows: qHTS Assay for Modulators of Lamin A Splicing. To be noted: HeLa LMNA splicing GFP/RFP minigene ratio, 48 h. The procedure, abridged:
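S3 HeLa stable clones carrying a lamin A-EGFP splicing minigene plus DsRed2 were seeded at 600 cells/well in Opti-MEM with 2% FBS, pin-dosed and incubated 48 h at 37°C. Acumen cytometry (488 nm) gave the GFP/RFP total-intensity ratio.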
On the technique in general: Quantitative high-throughput screening tests each substance at several concentrations.

The mark [1] stands for this setting: measured here: RFP viability control channel.
The mark [2] stands for this setting: measured here: GFP splicing reporter channel.

With `S=C(NCc1ccco1)Nc1cccc(Cl)c1`, under setting [1], the AC50 is 10 µM [rising, partial curve].
As for `COc1ccc(N2CC(C(=O)OCC(=O)c3ccc(C)cc3)CC2=O)cc1` (configuration not stated), the AC50 was 0.0126 µM [rising, full curve] under setting [2] and 0.00562 µM [rising, full curve, poor fit] under setting [1].
As to `COc1ccccc1-n1c(=O)oc2ccc(Cl)cc2c1=O`, the AC50 under setting [2] was 2.82 µM [rising, single point] and the AC50 under setting [1] is 6.31 µM [rising, single point].
As to `N#CCC(=O)Nc1cc(C(F)(F)F)ccc1N1CCOCC1`, the AC50 under setting [1] is 0.0891 µM [falling, partial curve].
Same read-out and setting: for `COc1ccc(CCNC(=O)Cn2c(=O)c3cccn3c3ccccc32)cc1OC` the value was 11.2 µM [rising, single point].
Take `CC(C)(C)c1ccc(-c2nc(NCc3cccnc3)c3ccccc3n2)cc1`: the AC50 was 17.8 µM [falling, single point] under setting [2] and 11.2 µM [falling, single point] under setting [1].
Consider `CCCCN(C)S(=O)(=O)c1ccc(C(=O)Nc2nnc(-c3ccco3)o2)cc1`, for which, under setting [2], the AC50 was 1.58 µM [falling, partial curve, poor fit].
As to `CC(=O)Nc1c(C)nn(-c2ccccc2)c1N1CCC(C(=O)Nc2cccc(C(F)(F)F)c2)CC1`, the AC50 by setting is: under setting [2], 0.891 µM [rising, partial curve]; under setting [1], 0.891 µM [rising, partial curve, poor fit].
Consider `CCc1nnc2c3ccccc3nc(N3CCN(c4cc(C)ccc4C)CC3)n12`, for which the AC50 was 35.5 µM [falling, single point] under setting [2] and 17.8 µM [falling, partial curve, poor fit] under setting [1].
For the molecule `O=C(Nc1nnc(SCc2ccccc2Cl)s1)c1cccc([N+](=O)[O-])c1`, the AC50 is 20 µM [rising, single point] under setting [2] and 35.5 µM [rising, single point] under setting [1].
Consider `COc1cccc(Nc2ncc3nc(CCc4ccccc4)c(=O)n(Cc4cccs4)c3n2)c1`, for which the AC50 runs as follows: under setting [2], 15.8 µM [falling, partial curve]; under setting [1], 10 µM [falling, partial curve].
As to `COc1ccc(N2CCN(S(=O)(=O)CCNC(=O)c3c(F)cccc3Cl)CC2)cc1`, the AC50 reads like this: under setting [2], 5.62 µM [rising, partial curve, poor fit]; under setting [1], 0.282 µM [rising, partial curve, poor fit].
Regarding `CC(=O)Nc1cc(C(=O)Nc2ccc3c(c2)N(C)C(=O)c2ccccc2S3)ccc1C`, the AC50 under setting [1] is 7.08 µM [rising, partial curve].
Turning to `CCOc1ccc(-c2onc(C(F)(F)F)c2-c2cscn2)c(O)c1`, under setting [1], the AC50 is 11.2 µM [rising, single point].
In the case of `COc1ccc(/C=N/NS(=O)(=O)c2ccc(C)cc2)cc1OC(=O)c1ccccc1`, the AC50 under setting [2] is 12.6 µM [rising, partial curve] and the half-maximal activity concentration (AC50) under setting [1] is 17.8 µM [rising, partial curve].
Take `CCOC(=O)C1(C)NC(c2cccs2)C2C(=O)N(c3ccc(OC)cc3)C(=O)C21` (configuration not stated): the AC50 is, setting by setting: under setting [2], 0.02 µM [falling, full curve, poor fit]; under setting [1], 0.02 µM [falling, full curve, poor fit].
For `COc1ccc(-c2ccc(=O)[nH]n2)cc1`, the AC50 was 0.891 µM [falling, full curve, poor fit] under setting [2] and 0.447 µM [falling, full curve, poor fit] under setting [1].
For `CCCOC(=O)c1ccc(NC(=O)CCC(=O)OCC)cc1`, the AC50 under setting [1] was 0.794 µM [falling, full curve, poor fit].
As to `Cc1ccc(Nc2nc(CSc3nnnn3-c3ccccc3)cc(=O)[nH]2)cc1`, the AC50 by setting is: under setting [2], 12.6 µM [rising, partial curve]; under setting [1], 14.1 µM [rising, partial curve].
Consider `O=C(Nc1nnc(S(=O)(=O)N2CCc3ccccc32)s1)c1ccccc1Cl`, for which the AC50 by setting is: under setting [2], 7.08 µM [rising, partial curve, poor fit]; under setting [1], 11.2 µM [rising, partial curve, poor fit].
For the molecule `CC1(C)Cc2ccccc2-c2nnc(SCC(=O)N3CCN(c4ccccc4)CC3)n21`, the AC50 under setting [1] was 8.91 µM [rising, partial curve].
For the molecule `CCOc1ncccc1C(=O)NCc1ccccc1F`, the AC50 under setting [1] was 0.141 µM [rising, full curve, poor fit].
Consider `CN1CCC[C@@H](CC2c3ccccc3Sc3ccccc32)C1`, for which the AC50 reads like this: under setting [2], 7.08 µM [falling, partial curve, poor fit]; under setting [1], 12.6 µM [falling, single point].
`C/C(=N\Nc1nc2c(s1)CCCC2)c1ccc(Cl)cc1`: the AC50 is 35.5 µM [falling, single point] under setting [2] and 25.1 µM [falling, single point] under setting [1].
As to `O=C(O)CCSCCC(=O)O`, the AC50 under setting [2] was 35.5 µM [falling, single point] and the AC50 under setting [1] was 1.78 µM [falling, partial curve].
`CCOC(=O)C1CCCN(C(=O)c2ccc(NC(=O)c3nsc4ccccc34)cc2)C1` (configuration not stated): the AC50 reads like this: under setting [2], 0.398 µM [rising, full curve, poor fit]; under setting [1], 0.141 µM [rising, full curve, poor fit].
With `Cc1ccccc1Nc1c(-c2ccccn2)nc2ccccn12`, the AC50 under setting [1] is 10 µM [rising, partial curve, poor fit].
Turning to `O.O.O.O=S(=O)([O-])OC[C@H]1O[C@@H](O[C@]2(COS(=O)(=O)[O-])O[C@H](OS(=O)(=O)[O-])[C@@H](OS(=O)(=O)[O-])[C@@H]2OS(=O)(=O)[O-])[C@H](OS(=O)(=O)[O-])[C@@H](OS(=O)(=O)[O-])[C@@H]1OS(=O)(=O)[O-].[Al]`, under setting [1], the AC50 was 10 µM [rising, single point].
Take `C/C(=N\NC(N)=S)C1C2C3CC4C5CC(C42)C1C53` (configuration not stated): the AC50 under setting [2] is 0.794 µM [rising, full curve, poor fit].
Turning to `Cc1noc(C)c1-c1nc(CSc2ccc(Cl)cc2)no1`, the AC50 under setting [2] is 0.112 µM [falling, full curve] and the AC50 under setting [1] is 0.0398 µM [falling, full curve].
As for `CCc1ccc(NC(=O)c2ccc(F)c(S(=O)(=O)NCCc3ccc(OC)c(OC)c3)c2)cc1`, the AC50 is, setting by setting: under setting [2], 11.2 µM [falling, single point]; under setting [1], 15.8 µM [falling, single point].
For the molecule `Cc1cc(C)c2nc(SCC(=O)N(C)C3CCS(=O)(=O)C3)cc(C)c2c1` (configuration not stated), the AC50 is, setting by setting: under setting [2], 0.0112 µM [falling, full curve, poor fit]; under setting [1], 0.00447 µM [falling, full curve, poor fit].
Consider `FC(F)(F)c1nnc2c(Sc3ccccc3)nc3ccc(Cl)cc3n12`, for which the AC50 under setting [2] is 5.01 µM [falling, full curve, poor fit] and the AC50 under setting [1] was 2 µM [falling, full curve, poor fit].
For `Oc1cccc2ccc[n+](CC(O)Cn3c4ccccc4c4ccccc43)c12` (configuration not stated), the AC50 under setting [1] is 8.91 µM [rising, partial curve].
In the case of `COc1ccc(-c2[nH]c(-c3ccc4c(c3)OCO4)nc2-c2ccccc2)cc1`, the AC50 is 10 µM [falling, partial curve] under setting [2] and 11.2 µM [falling, single point] under setting [1].
Turning to `O=c1[nH]c(/C=C/c2cccc3ccccc23)nc2ccccc12`, the AC50 under setting [1] was 0.282 µM [falling, partial curve, poor fit].
Turning to `CC(=O)c1ccc2c(c1)N(CCCN1CCC(CCO)CC1)c1ccccc1S2`, the concentration at half-maximal activity (AC50) under setting [2] is 0.000891 µM [falling, full curve, poor fit].
In the case of `Cc1ccc(OCC(=O)N/N=C\c2ccc(O)cc2)c([N+](=O)[O-])c1`, under setting [1], the AC50 is 5.01 µM [falling, partial curve, poor fit].
As for `CCCCCCN1C=CC(=C/C=C(\C#N)C(=O)OCC)C=C1`, the AC50 reads like this: under setting [2], 35.5 µM [falling, single point]; under setting [1], 12.6 µM [falling, partial curve].
In the case of `C=CCc1c(C)nc(SC)nc1Nc1ccccc1`, the AC50 under setting [1] was 35.5 µM [rising, single point].
For the molecule `CC(C)CCNc1ncnc2c1cnn2-c1cccc(Cl)c1`, the AC50 under setting [1] was 31.6 µM [rising, single point].
Consider `O=C(c1cc2cc(Br)ccc2o1)N1CCCCC1`, for which, under setting [1], the AC50 is 6.31 µM [rising, single point].
As to `C=C(C)Cn1c(-c2ccccc2)nc2ccccc21`, under setting [1], the AC50 is 15.8 µM [rising, single point].
With `COc1cc(-c2nnc(SCC(=O)N3c4ccccc4Sc4ccccc43)o2)cc(OC)c1OC`, the AC50 under setting [1] is 2.24 µM [rising, full curve, poor fit].
Turning to `COCCNC(=O)C(=O)NCC(c1cccnc1)N1CCN(c2ccccc2)CC1` (configuration not stated), the half-maximal activity concentration (AC50) under setting [2] is 0.02 µM [falling, full curve, poor fit].
Turning to `Cc1ccc(/C=N/N2CCOCC2)s1`, under setting [1], the AC50 is 35.5 µM [rising, single point].
As to `Cc1nn(-c2ccccc2)c2c1/C(=N/O)CC(C)(C)C2`, the AC50 under setting [1] was 15.8 µM [rising, single point].
Consider `CC(=O)c1cccc(NC(=O)N2CCC(CN3CCCCC3)CC2)c1`, for which the AC50 under setting [2] was 0.0316 µM [falling, full curve] and the AC50 under setting [1] is 0.0316 µM [falling, full curve].
Regarding `CCCNC(=O)c1c(N)n(-c2ccc(S(N)(=O)=O)cc2)c2nc3ccccc3nc12`, under setting [1], the AC50 was 0.501 µM [rising, full curve, poor fit].
On to `COc1ccc2c(C#N)c3ccccn3c2c1`, for which, under setting [1], the AC50 was 0.00447 µM [falling, full curve, poor fit].
`CO[C@@]1(NC(=O)Cc2cccs2)C(=O)N2C(C(=O)O)=C(COC(N)=O)CS[C@@H]21`: under setting [2], the AC50 is 7.94 µM [rising, partial curve, poor fit].
With `O=c1oc2c(CN3CCOCC3)c(O)c(Cl)cc2c2c1CCCC2`, the AC50 by setting is: under setting [2], 2.24 µM [rising, partial curve, poor fit]; under setting [1], 35.5 µM [rising, single point].

A word on the AC50: it is the midpoint of the concentration-response curve, whichever way the signal moves.
